Mtb glucose medium: 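Whole-cell growth test on Mycobacterium tuberculosis, read after 3 days in glucose-containing 7H9 medium; the read-out is not stated. Compounds at 50 µM. The record gives no direction; compounds that gave an IC50 in retests scored well above the rest, so higher reads as more growth inhibition. About 69,000 compounds were tested under these conditions; 1.1% (about 760) showed 50% or more at least once.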
Mtb cholesterol medium: 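Growth of Mycobacterium tuberculosis over 4 days (cholesterol / DPPC medium with tyloxapol); the read-out is not stated. Concentration: 50 µM. Direction is inferred from retests: higher values go with more growth inhibition. Of about 69,000 compounds tested this way, about 370 (0.54%) reached 50% or more in at least one test.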

Values are the deposited “Percent Effect”, in %.
The controls that fix the scale are not given in the record; negative values are as filed.
This is an unselected part of the compounds tested.
Two or more numbers in one place are separate tests of the same structure; such repeats can differ widely.

SMILES,Mtb glucose medium,Mtb cholesterol medium
Cc1cc2ccccc2n1CCC(=O)NCCS(C)(=O)=O,-7.449,4.49
O=S(=O)(Cc1ccccc1Cl)N1CCC2(CC1)OCCS2,7.753 & -8.9,-6.038
Cc1nc(Nc2nncs2)cc(C2CNC2)n1.O=C(O)C(F)(F)F,-17.63,6.287 & -15.65
CN(CCOc1cccc(CNC(=O)C2CC2)c1)C1CCOCC1,20.62,22.94
CC(CO)CN(Cc1ccccc1)C(=O)c1csc(CN(C)C)n1 (centres unmarked),11,10.94
[H][C@@]12CN(Cc3ccc(OC)cc3)C[C@]1([H])OCC(=O)N2CC(N)=O,-7.67 & -4.065,-15.15
Cn1cc(NC(=O)CCc2ccsc2)ccc1=O,-13.65,-9.106
Cl.Cl.c1ccc(OC[C@@H]2CCC[C@@]23CNCCO3)nc1,-32.21,-30.04
O=C(O)C(F)(F)F.O=C(O)C(F)(F)F.[H][C@]12CCN(c3ncc(F)cn3)[C@@]1([H])CC[C@@H](COCc1ccccn1)O2,-5.59,-8.982
CC1CCN(CC2(O)CCCN(Cc3cccc(F)c3F)C2=O)CC1 (centres unmarked),-9.015,-7.524
CC(C)[C@H]1CN(C(=O)CO)C[C@@H]1N(C)C,-31.74 & 0.774,8.874
Cc1cc(C)n(C2CCCN(C(=O)CN(C)c3cnccn3)C2)n1 (centres unmarked),22.1,5.596 & -8.978
CCS(=O)(=O)NCCN1CCN(C(C#N)c2ccccc2)CC1 (centres unmarked),21.05,13.02
CCN(CCc1nc2cc(C)ccc2[nH]1)C(=O)[C@@H](N)CCSC,-16.24,5.324
Cc1nc(CN2CCOCC2c2[nH]ncc2C)cs1 (centres unmarked),14.97,0.8035 & -3.306
Cc1cc2n(n1)CC(CNCCNC(=O)c1ccc(F)cc1)CN2 (centres unmarked),27.9 & 25.17,7.132
CCCc1nc(C)cc(N2CCNC(C(=O)NC3CC3)C2)n1 (centres unmarked),-19.58,-11.35
CO[C@H]1CN(C(C)C)C[C@@H]1NC(=O)Nc1cccc(SC)c1,-11.78,-38.79
CNC(=O)C(C)(C)N(C)C(=O)c1cc(COc2ccccc2OC)[nH]n1,13.03,-22.59
CCS(=O)(=O)N1CCN(CCn2cccn2)c2nc(C)ccc2C1.O=C(O)C(F)(F)F,28.55,20.33
Cc1cnn(CCC(=O)N2CCCC(c3nc(C)no3)C2)c1 (centres unmarked),-2.974,-18.53
CC(NC(=O)N1CCc2sccc2C1)c1nncn1C (centres unmarked),1.17 & 6.246,-1.103
COc1ccc(CN(C(=O)C2CCCS2)c2ccncc2)cc1 (centres unmarked),80.28 & 48.56,61.92
Cc1ccc(CNC(=O)CN2CCN(CC(O)c3ccco3)CC2)cc1.Cl.Cl (centres unmarked),23.84,21.2
COCCC1CCN(CC(C)n2cnc3ccccc32)CC1 (centres unmarked),6.533 & -17.89,21.04
CCNc1ncc(CN2CCOC(Cc3cccc(OC)c3)C2)cn1 (centres unmarked),12.16,4.346
O=C(NCCNc1ccc(C(F)(F)F)cn1)c1ccoc1,31.87,9.108
O=C(O)C(F)(F)F.[H][C@@]12CN(C)CCO[C@]1([H])CN(C(=O)COc1cccc(Cl)c1)C2,1.185 & -11.49,13.81
N#Cc1ccc(OCCCN2CCOC(Cn3cncn3)C2)cc1 (centres unmarked),-1.295,-6.095
COCC1CN(C(=O)CS(C)(=O)=O)Cc2ncn(CC3CC3)c21 (centres unmarked),4.024,-5.366
CCCSc1ncc(CN(C)CCN2CCCCC2)cn1.O=C(O)CC(O)(CC(=O)O)C(=O)O,22.15,8.834
CCc1nccn1C1CCCN(C(=O)c2csc(COC)n2)C1 (centres unmarked),9.692,-6.273
Cc1c(C)c(C)c2[nH]c(-c3cn(C4CCNCC4)nn3)nc2c1C,25.13,-4.039
CCCOc1ccc(C2SCC(=O)Nc3c2c(=O)[nH]n3C(C)C)cc1 (centres unmarked),14.45,-3.903
[H][C@@]12CCN(C(=O)c3cnc(C)cn3)C[C@@]1([H])O[C@H](c1nc(C)cs1)C2,-9.214 & -6.413,-18.65 & 1.515
O=C(O)C(F)(F)F.[H][C@@]12CCN(C(=O)CC(C)C)CC[C@]1(C(=O)N1CCOCC1)CCN2CC,8.783,2.3
COCC(=O)N1CC(c2ccnc(Nc3ccc(C)cn3)n2)C1,-4.244,-13.82
COCCN1CC(C(=O)N(C)Cc2cc(-c3cccnc3)no2)CC1=O (centres unmarked),-21.03,-22.74
COc1ccc(O)c(C(=O)NCC2CCCN(C3CCOCC3)C2)c1 (centres unmarked),-2.041,-3.496
[H][C@]12CC[C@@]3(N=C(c4ccccc4)NC3=O)[C@@]1([H])CN(S(=O)(=O)C1CC1)C2,3.673 & 26.85,3.573
Cc1nc(C)c(C)c(N(C)CCCc2nccn2C)n1,-3.583,12.42
Cc1c(CN2CCOCC2)c(O)n(CCc2ccccc2)c(=O)c1C#N,-10.35,-9.721
Cc1nnc(N2CCCC3(CN(c4cccc(F)c4)CCO3)C2)o1 (centres unmarked),-25.76 & 2.466,-1.892 & -1.814
COc1c[nH]c(C(=O)N2CCN(c3ccccc3)CC2)cc1=O,-22.99 & -4.508,-11.97
Cc1nc(C)n(C2CCCN(C(=O)c3cccc4cn[nH]c34)C2)n1 (centres unmarked),14.77,13.13
CCn1cc(NC(=O)NCc2ccc3c(c2)OCO3)cn1,-9.887,-19.52
CC(=O)c1cccc(OCCCC(=O)NCC2CCCN2C)c1 (centres unmarked),-8.724,8.138
CSc1ccsc1C(=O)NCCNC(=O)C1CC1,-0.4287 & 25.03,5.608
COCC(NC(=O)c1cn(-c2cccc(Cl)c2F)nn1)C1CC1 (centres unmarked),33.8,3.68
CN1CCCC1c1ccc(C(=O)Nc2c3c(nn2C)CCC3)s1 (centres unmarked),10.85,10.68
CCc1nc(C2CCCN(C(=O)CCn3ccccc3=O)C2)no1 (centres unmarked),-6.293,-5.016
CCc1noc(C2CCCCN2C(=O)c2sccc2C)n1 (centres unmarked),19.82,14.33
CC[C@@H](CO)NC(=O)c1cc(COc2ccc(OC)cc2Cl)[nH]n1,15.19 & -22.41,-5.588
[H][C@]12CC[C@]([H])(CN(C(=O)CCc3n[nH]c4c3CCCC4)C1)N(CC1CC1)C2,52.33,-1.965
CC(=O)N(Cc1ncc(C(C)C)o1)C1CCN(CC2CCC2)C1 (centres unmarked),-3.971,-7.137
Cc1nc(Cc2ccccc2)nc2sc(C(=O)O)c(C)c12,-19.37,-7.519
CCN1CCn2c(-c3cccc(F)c3)cnc2C12CCN(C(C)=O)CC2.O=C(O)C(F)(F)F,-8.635,-19.09
Cc1cc(C2CCC2)nc(N(C)Cc2cc(-c3ccccn3)no2)n1,36.55,15.58
Cc1ccc(NC(=O)N2CCOC(C(N)=O)C2)cc1C(F)(F)F (centres unmarked),19.78,18.93
O=C(c1cccc(Cl)c1)N1CC[C@@H](N2CCC(O)CC2)[C@H](O)C1,10.91 & -1.939,-14.45 & -0.7161
c1coc(-c2nnc([C@H]3CCN(Cc4ccc5c(c4)OCO5)C3)o2)c1,27.96 & 15.68,20.11
Fc1cc(Cl)cnc1N1CCCC(c2nccn2CC2CC2)C1 (centres unmarked),18.37,-5.236
CS(=O)(=O)N1CCC(c2cnc(-c3cn[nH]c3)cn2)CC1,-4.751,-0.2796 & 23.74

Once more, the final 6:

SMILES,Mtb glucose medium,Mtb cholesterol medium
Cc1cc(C2CCC2)nc(N(C)Cc2cc(-c3ccccn3)no2)n1,36.55,15.58
Cc1ccc(NC(=O)N2CCOC(C(N)=O)C2)cc1C(F)(F)F (centres unmarked),19.78,18.93
O=C(c1cccc(Cl)c1)N1CC[C@@H](N2CCC(O)CC2)[C@H](O)C1,10.91 & -1.939,-14.45 & -0.7161
c1coc(-c2nnc([C@H]3CCN(Cc4ccc5c(c4)OCO5)C3)o2)c1,27.96 & 15.68,20.11
Fc1cc(Cl)cnc1N1CCCC(c2nccn2CC2CC2)C1 (centres unmarked),18.37,-5.236
CS(=O)(=O)N1CCC(c2cnc(-c3cn[nH]c3)cn2)CC1,-4.751,-0.2796 & 23.74

The values are deposited in ChEMBL (CHEMBL3988442, “University of Dundee, Small-Polar-MMV Screening Library” (2021)).